Our source for the binding signal values is PMC7819943, “Rice protein-binding microarrays: a tool to detect cis-acting elements near promoter regions in rice”.

The chains behind the UniProt entries cited, without tags or fusion partners.
UniProt Q0JBA9, entry or part of it: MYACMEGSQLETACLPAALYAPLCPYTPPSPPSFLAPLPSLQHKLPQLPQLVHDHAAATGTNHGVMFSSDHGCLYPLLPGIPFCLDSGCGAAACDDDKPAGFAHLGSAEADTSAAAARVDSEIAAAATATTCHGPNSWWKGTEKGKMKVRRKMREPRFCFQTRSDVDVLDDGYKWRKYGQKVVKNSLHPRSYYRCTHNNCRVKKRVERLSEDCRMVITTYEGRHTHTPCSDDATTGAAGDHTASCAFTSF

This is one part of the list.

The target in the assay is OsWRKY34 (Oryza sativa, UniProt Q0JBA9 1-250). Nature of the assay: protein-binding microarray (RPBM); PBS, 2% BSA, 51.3 ng/ul salmon testes DNA, 50 uM zinc acetate, 200 nM TF, 25 C, 1 h; high values mean tight binding. Conditions: protein: recombinant; tags: N-terminal polyhistidine and DsRed monomer fusion (pET32a); label: CyDye5-dUTP incorporated in the synthesized complementary strand; 3' TTTTT single-stranded linker to array surface; dsDNA, one strand shown. In a few lines:
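The binding signal is fluorescence intensity per feature, in arbitrary units, read on an Axon 4000B scanner. Polyhistidine- and DsRed-tagged transcription factors (N-terminal fusions) from E. coli BL21-CodonPlus were purified on Ni–NTA and applied at 200 nM for 1 h at 25 °C to a double-stranded, BSA-blocked custom Agilent array in buffer with 50 µM zinc acetate.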
“GGTTTTTTTTGGATTTATTGCTTTGTCACGTCTGGATCGTCGGAGTCACCTAGTGCAG”: the binding signal is 20500 fluorescence intensity (a.u.).
For “CGCCAGACGACCACTAAGCCCGCCTGCACGCTGCCATCGCCGGAGTCACCTAGTGCAG”, the binding signal was 8470 fluorescence intensity (a.u.).
Turning to “AGGTGCAGGGTTGTTTTCTGGGTCCGACAACATAAGGGGCCGGAGTCACCTAGTGCAG”, the binding signal is 8310 fluorescence intensity (a.u.).
With “TTTGGACACCTATATGGGCGGGCGGGTGTATGTACAGTACCGGAGTCACCTAGTGCAG” the figure was 14700 fluorescence intensity (a.u.); with “CTATATTTTGGGATATTTTGGGATGGATATAGTATATAAGCGGAGTCACCTAGTGCAG”, 9200 fluorescence intensity (a.u.); with “ATCACTAGATCGCGATTTCGCTCCTTTCTTCAGGTCCCTCCGGAGTCACCTAGTGCAG”, 9140 fluorescence intensity (a.u.).
On to “CTGACGAGTTATTATTAACCCACCCACCCGGAAGCCACTGCGGAGTCACCTAGTGCAG”, for which the binding signal is 8070 fluorescence intensity (a.u.).
With “CGTTGTGTTGGTATGTGGTCTTCCTCCTCGTGTCTGTCGCCGGAGTCACCTAGTGCAG” the figure was 9950 fluorescence intensity (a.u.); with “CTCTCTGCTCAGCGTTGCGGGGCTTTGGATTTTTTTTTCTCGGAGTCACCTAGTGCAG”, 8140 fluorescence intensity (a.u.).
Under “CGTGGGTGGAGGGATCGGCGCCGACGTGTGGTGCGCGCCTCGGAGTCACCTAGTGCAG” stands 10200 fluorescence intensity (a.u.); under “TTTATTTTGTCGACATCGTTTAACTTGGTGTTTTTTCCCCCGGAGTCACCTAGTGCAG”, 12000 fluorescence intensity (a.u.); under “TTCGATCGATCCATGCAACAACATCCTGATTTGTTTTTCTCGGAGTCACCTAGTGCAG”, 8490 fluorescence intensity (a.u.).
With “CTCTCCCTCTCGCTTTCTACATCCATCCCGCACTGTAACACGGAGTCACCTAGTGCAG” the figure was 8660 fluorescence intensity (a.u.).
In the case of “GGGTGAAGTGTGGGCGGTCGGAGATCTCGATGCCGCTGGGCGGAGTCACCTAGTGCAG”, the binding signal was 8030 fluorescence intensity (a.u.).
Under “TGACCAATCGCCAGTGCTCACACCCACTCTCCTAGCCTAGCGGAGTCACCTAGTGCAG” stands 8140 fluorescence intensity (a.u.); under “CGGGTCTTGCAATCCACTTCTTCTTCTTTTTTTTCTTTTTCGGAGTCACCTAGTGCAG”, 8630 fluorescence intensity (a.u.).
Under “CAGCCAACGACCCAACTCCATCGTCCTCCTCGTCGTCCGCCGGAGTCACCTAGTGCAG” stands 8510 fluorescence intensity (a.u.); under “TCCCCGCTCTCGCCTCCTCCATCCCATCGCGCCACGCGAGCGGAGTCACCTAGTGCAG”, 9290 fluorescence intensity (a.u.); under “GCAGTGTGAACACATCTAACTTCTATTGTACTGGACAAATCGGAGTCACCTAGTGCAG”, 8050 fluorescence intensity (a.u.).
With “CGCGGCTTATGTATTCTAGTGGATTTTGCTCCTAGCCTACCGGAGTCACCTAGTGCAG” the figure was 10000 fluorescence intensity (a.u.).
Take “ACTACGAAATCTATGGCAGTTTTCCCAATTTTTCACCCAACGGAGTCACCTAGTGCAG”: the binding signal was 8490 fluorescence intensity (a.u.).
As to “AATTGGGAAAATTGGAACCGTGCCACTCCATCATGTTTTCCGGAGTCACCTAGTGCAG”, the binding signal was 8210 fluorescence intensity (a.u.).
Take “CCTGCCGCCCTGTGTGATCCTACGAACCGACCGAATTAACCGGAGTCACCTAGTGCAG”: the binding signal was 10800 fluorescence intensity (a.u.).
With “TTAGTTTGTTTATCTTTTTTAAGAACTTATGTACTTTATTCGGAGTCACCTAGTGCAG” the figure was 8520 fluorescence intensity (a.u.); with “CTTCAGTTATGTTAATTACATGTCATTTGTTTTGTTACAACGGAGTCACCTAGTGCAG”, 8130 fluorescence intensity (a.u.); with “GCGCTTATGTGTACTAGTTTGGTTGTGCATGCACACTAATCGGAGTCACCTAGTGCAG”, 9720 fluorescence intensity (a.u.).
Under “TCGCCGCCCCTTATCCGGTCAGCGCACCGCTCGCAACAACCGGAGTCACCTAGTGCAG” stands 8470 fluorescence intensity (a.u.); under “ACGTCCGCAAAACCACCCATATATACTGCCATAGGACCCTCGGAGTCACCTAGTGCAG”, 8020 fluorescence intensity (a.u.).
Under “CAGTGGGTGTATTTGGTCCGCCTTGTGCTGTCGTCGTCGACGGAGTCACCTAGTGCAG” stands 8080 fluorescence intensity (a.u.).
Consider “CCAAGGCTGTGTATTAATTAGCAACATTTTTTTTTCTTCTCGGAGTCACCTAGTGCAG”, for which the binding signal was 8370 fluorescence intensity (a.u.).
For “TTGGTTTGGTTCAGGTGAGAGAGGTCAACAATAGCTGTTGCGGAGTCACCTAGTGCAG”, the binding signal is 8040 fluorescence intensity (a.u.).
With “GATCCAAACGCGAGGTTTTCGGACAGCTGTCGTCACTCCTCGGAGTCACCTAGTGCAG” the figure was 8520 fluorescence intensity (a.u.); with “TGATGCTCTGATGACCTCCTGGCTAGCTTCTACACACACTCGGAGTCACCTAGTGCAG”, 8450 fluorescence intensity (a.u.); with “CACCACTCACGCTGTTGGCACAATCTCCTCCGGCGTTGTCCGGAGTCACCTAGTGCAG”, 8970 fluorescence intensity (a.u.).
In the case of “TTGCAGCTTGTACACGCAACATCTAGTTGTATTGTTGGGTCGGAGTCACCTAGTGCAG”, the binding signal was 9090 fluorescence intensity (a.u.).
Regarding “GTCGTTTCTCTCTACCACGTGTACAGCAGCAGGTCAGCTGCGGAGTCACCTAGTGCAG”, the binding signal is 8330 fluorescence intensity (a.u.).
Under “TATTGTACCCCAATTTACAAATGTCCCGCATTTCTATTAACGGAGTCACCTAGTGCAG” stands 8620 fluorescence intensity (a.u.); under “ATTCTTCACTACAATTTTACATTTTGCCTCTGTATTGGTACGGAGTCACCTAGTGCAG”, 9020 fluorescence intensity (a.u.); under “AGTGTTTTTACTTTTTTTTTTCTAAGTTGTCTTTTCTTCCCGGAGTCACCTAGTGCAG”, 12400 fluorescence intensity (a.u.).
Under “CACGCTTCGTCGTCGGATCGGGACGCCTTGCTGCCTCTGCCGGAGTCACCTAGTGCAG” stands 8170 fluorescence intensity (a.u.); under “CTGGGGTTGGCCTGGGCTGATATATGTTTGGCGCTCAAAACGGAGTCACCTAGTGCAG”, 11100 fluorescence intensity (a.u.).
Under “GGCCCCATGTACCTTTTTTTAAACAAATTTGCTGACTAGGCGGAGTCACCTAGTGCAG” stands 8760 fluorescence intensity (a.u.).
